According to PMC8595886:
Results are given in words; binding and its absence hold for the method and conditions named. In cells and extracts the contact can be indirect. Some entries that bind do so weakly or less than the wild type. Sequences can lack the tags named with a protein.

Protein sequences, listed by entry. Tags and fused reporters are not part of them.
UniProt Q96EP0: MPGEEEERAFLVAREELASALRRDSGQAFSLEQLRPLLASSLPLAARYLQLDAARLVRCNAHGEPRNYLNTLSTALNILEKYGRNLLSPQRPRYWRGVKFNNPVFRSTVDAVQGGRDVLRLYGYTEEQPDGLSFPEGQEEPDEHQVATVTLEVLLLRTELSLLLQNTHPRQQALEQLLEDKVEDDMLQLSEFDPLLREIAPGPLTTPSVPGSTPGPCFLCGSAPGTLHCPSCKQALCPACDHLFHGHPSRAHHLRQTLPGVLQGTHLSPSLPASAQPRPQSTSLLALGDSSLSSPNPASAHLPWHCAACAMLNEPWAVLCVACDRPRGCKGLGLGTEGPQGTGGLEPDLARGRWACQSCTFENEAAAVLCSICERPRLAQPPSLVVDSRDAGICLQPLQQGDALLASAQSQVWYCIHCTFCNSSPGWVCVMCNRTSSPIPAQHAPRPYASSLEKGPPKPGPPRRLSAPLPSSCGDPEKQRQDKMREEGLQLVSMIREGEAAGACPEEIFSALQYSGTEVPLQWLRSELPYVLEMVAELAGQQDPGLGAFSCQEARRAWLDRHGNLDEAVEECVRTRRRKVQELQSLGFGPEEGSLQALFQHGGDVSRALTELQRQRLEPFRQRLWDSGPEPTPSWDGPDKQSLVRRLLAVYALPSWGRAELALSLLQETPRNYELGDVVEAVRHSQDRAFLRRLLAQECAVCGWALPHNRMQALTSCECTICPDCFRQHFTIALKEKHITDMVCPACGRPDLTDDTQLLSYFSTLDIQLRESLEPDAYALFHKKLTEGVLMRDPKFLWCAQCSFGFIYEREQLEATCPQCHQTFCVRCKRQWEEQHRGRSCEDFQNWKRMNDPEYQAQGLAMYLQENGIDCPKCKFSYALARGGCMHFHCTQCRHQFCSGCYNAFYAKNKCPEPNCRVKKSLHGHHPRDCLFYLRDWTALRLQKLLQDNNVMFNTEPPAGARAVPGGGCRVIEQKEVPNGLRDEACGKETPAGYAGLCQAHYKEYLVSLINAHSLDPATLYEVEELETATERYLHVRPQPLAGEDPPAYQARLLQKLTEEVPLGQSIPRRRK

Target: Myc-tagged HOIP WT (HOIL-1-interacting protein) (UniProt Q96EP0)
Test: co-IP; 293T cells transiently co-transfected with Flag-tagged SHARPIN (WT or R274W) and Myc-tagged HOIP; immunoprecipitated with anti-Myc antibody, western blot (Fig. 4A)

binding | Binder
binds | Flag-tagged SHARPIN WT (SHANK-associated RH Domain Interactor) (protein, UniProt Q9H0F6-1 1-387) MAPPAGGAAAAASDLGSAAVLLAVHAAVRPLGAGPDAEAQLRRLQLSADPERPGRFRLELLGAGPGAVNLEWPLESVSYTIRGPTQHELQPPPGGPGTLSLHFLNPQEAQRWAVLVRGATVEGQNGSKSNSPPALGPEACPVSLPSPPEASTLKGPPPEADLPRSPGNLTEREELAGSLARAIAGGDEKGAAQVAAVLAQHRVALSVQLQEACFPPGPIRLQVTLEDAASAASAASSAHVALQVHPHCTVAALQEQVFSELGFPPAVQRWVIGRCLCVPERSLASYGVRQDGDPAFLYLLSAPREAPATGPSPQHPQKMDGELGRLFPPSLGLPPGPQPAASSLPSPLQPSWSCPSCTFINAPDRPGCEMCSTQRPCTWDPLAAAST
binds | Flag-tagged SHARPIN R274W mutant (protein, UniProt Q9H0F6-1 1-387) MAPPAGGAAAAASDLGSAAVLLAVHAAVRPLGAGPDAEAQLRRLQLSADPERPGRFRLELLGAGPGAVNLEWPLESVSYTIRGPTQHELQPPPGGPGTLSLHFLNPQEAQRWAVLVRGATVEGQNGSKSNSPPALGPEACPVSLPSPPEASTLKGPPPEADLPRSPGNLTEREELAGSLARAIAGGDEKGAAQVAAVLAQHRVALSVQLQEACFPPGPIRLQVTLEDAASAASAASSAHVALQVHPHCTVAALQEQVFSELGFPPAVQRWVIGWCLCVPERSLASYGVRQDGDPAFLYLLSAPREAPATGPSPQHPQKMDGELGRLFPPSLGLPPGPQPAASSLPSPLQPSWSCPSCTFINAPDRPGCEMCSTQRPCTWDPLAAAST
